This note sets out measurements from paper PMC8797263.

Amino acid sequences for entries named in this document (tags omitted).
UniProt Q00519: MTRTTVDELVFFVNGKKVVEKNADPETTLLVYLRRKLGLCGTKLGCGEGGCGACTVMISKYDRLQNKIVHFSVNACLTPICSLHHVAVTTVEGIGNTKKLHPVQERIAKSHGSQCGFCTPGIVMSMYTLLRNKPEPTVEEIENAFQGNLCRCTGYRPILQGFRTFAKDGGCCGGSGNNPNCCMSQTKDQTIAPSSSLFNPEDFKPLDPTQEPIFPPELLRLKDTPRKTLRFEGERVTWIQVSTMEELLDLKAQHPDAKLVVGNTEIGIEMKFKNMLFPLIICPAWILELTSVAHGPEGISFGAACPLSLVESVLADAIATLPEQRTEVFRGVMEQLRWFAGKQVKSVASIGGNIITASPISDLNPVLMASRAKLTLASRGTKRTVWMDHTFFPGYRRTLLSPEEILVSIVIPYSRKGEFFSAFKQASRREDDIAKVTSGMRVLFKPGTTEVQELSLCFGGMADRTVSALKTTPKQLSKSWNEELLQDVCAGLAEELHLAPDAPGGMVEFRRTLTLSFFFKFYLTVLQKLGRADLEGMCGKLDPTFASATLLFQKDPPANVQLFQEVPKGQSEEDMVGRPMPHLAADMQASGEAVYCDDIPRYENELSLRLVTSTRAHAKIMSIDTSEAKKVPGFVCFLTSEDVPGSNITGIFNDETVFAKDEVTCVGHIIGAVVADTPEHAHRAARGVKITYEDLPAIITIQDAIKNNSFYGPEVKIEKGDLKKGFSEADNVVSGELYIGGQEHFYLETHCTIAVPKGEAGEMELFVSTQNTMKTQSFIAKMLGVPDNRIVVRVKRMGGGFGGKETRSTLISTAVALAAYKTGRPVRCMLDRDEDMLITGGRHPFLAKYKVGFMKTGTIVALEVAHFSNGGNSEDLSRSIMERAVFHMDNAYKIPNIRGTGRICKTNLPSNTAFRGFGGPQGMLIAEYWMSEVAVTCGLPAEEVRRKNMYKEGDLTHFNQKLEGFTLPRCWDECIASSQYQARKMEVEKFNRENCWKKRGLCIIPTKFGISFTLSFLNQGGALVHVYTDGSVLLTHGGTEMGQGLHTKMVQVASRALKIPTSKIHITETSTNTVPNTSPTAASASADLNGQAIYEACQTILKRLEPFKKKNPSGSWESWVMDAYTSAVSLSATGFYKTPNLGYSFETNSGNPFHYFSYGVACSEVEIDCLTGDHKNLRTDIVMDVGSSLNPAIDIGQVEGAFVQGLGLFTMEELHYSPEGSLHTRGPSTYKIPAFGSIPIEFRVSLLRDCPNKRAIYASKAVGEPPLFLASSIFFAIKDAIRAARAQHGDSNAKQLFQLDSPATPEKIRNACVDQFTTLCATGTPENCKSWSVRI

B1: HA-PLIN2 (Perilipin-2) (protein, UniProt P43883 1-425)
chain: MAAAVVDPQQSVVMRVANLPLVSSTYDLVSSAYVSTKDQYPYLRSVCEMAEKGVKTVTSAAMTSALPIIQKLEPQIAVANTYACKGLDRMEERLPILNQPTSEIVASARGAVTGAKDVVTTTMAGAKDSVASTVSGVVDKTKGAVTGSVERTKSVVNGSINTVLGMVQFMNSGVDNAITKSELLVDQYFPLTQEELEMEAKKVEGFDMVQKPSNYERLESLSTKLCSRAYHQALSRVKEAKQKSQETISQLHSTVHLIEFARKNMHSANQKIQGAQDKLYVSWVEWKRSIGYDDTDESHCVEHIESRTLAIARNLTQQLQTTCQTVLVNAQGLPQNIQDQAKHLGVMAGDIYSVFRNAASFKEVSDGVLTSSKGQLQKMKESLDEVMDYFVNNTPLNWLVGPFYPQSTEVNKASLKVQQSEVKAQ
B2: HA-BTN1a1 (protein, UniProt Q62556 27-524)
chain: AAPFDVTAPQEPVLALVGSDAELTCGFSPNASSEYMELLWFRQTRSTAVLLYRDGQEQEGQQMTEYRGRATLATAGLLDGRATLLIRDVRVSDQGEYRCLFKDNDDFEEAAVYLKVAAVGSDPQISMTVQENGEMELECTSSGWYPEPQVQWRTGNREMLPSTSESKKHNEEGLFTVAVSMMIRDSSIKNMSCCIQNILLGQGKEVEISLPAPFVPRLTPWIVAVAIILLALGFLTIGSIFFTWKLYKERSSLRKKEFGSKERLLEELRCKKTVLHEVDVTLDPDTAHPHLFLYEDSKSVRLEDSRQILPDRPERFDSWPCVLGRETFTSGRHYWEVEVGDRTDWAIGVCRENVVKKGFDPMTPDNGFWAVELYGNGYWALTPLRTSLRLAGPPRRVGVFLDYDAGDISFYNMSNGSLIYTFPSISFSGPLRPFFCLWSCGKKPLTICSTANGPEKVTVIANVQDDIPLSPLGEGCTSGDKDTLHSKLIPFSPSQAAP

Results are given in words; binding and its absence hold for the method and conditions named. In cells and extracts the contact can be indirect. Some results given as binding are weak or reduced against the parent protein; the word gives no strength. Tags and fused reporters may be left off the sequences shown.

For the assay, the target named is T1, FLAG-OCLN (Occludin) (UniProt Q61146).
T1 sequence: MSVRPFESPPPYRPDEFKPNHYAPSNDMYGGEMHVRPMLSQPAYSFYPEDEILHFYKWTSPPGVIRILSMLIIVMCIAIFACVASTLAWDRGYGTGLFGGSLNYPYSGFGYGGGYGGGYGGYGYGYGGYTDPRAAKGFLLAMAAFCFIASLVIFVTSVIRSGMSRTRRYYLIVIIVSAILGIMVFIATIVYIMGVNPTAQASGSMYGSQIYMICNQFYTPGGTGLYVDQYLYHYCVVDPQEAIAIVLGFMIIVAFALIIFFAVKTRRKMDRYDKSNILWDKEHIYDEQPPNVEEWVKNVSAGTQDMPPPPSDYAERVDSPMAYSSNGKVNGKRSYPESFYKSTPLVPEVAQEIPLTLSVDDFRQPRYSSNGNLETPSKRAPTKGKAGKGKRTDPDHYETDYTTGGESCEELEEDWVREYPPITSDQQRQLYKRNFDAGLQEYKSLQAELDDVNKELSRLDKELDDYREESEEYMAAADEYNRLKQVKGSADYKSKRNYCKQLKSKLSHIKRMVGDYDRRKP
The experiment in a line: co-IP; 293T cells co-expressing FLAG-OCLN (or OCLN-ΔN / OCLN-ΔC) and HA-PLIN2/BTN1a1/XOR; lysis in 20 mM HEPES, 150 mM NaCl, 1% NP40; FLAG magnetic beads overnight at 4°C, 4 washes; western blot with anti-HA. For orientation: Immunoblotting shows a protein as a band on a membrane.
HA-XOR (from UniProt Q00519 1-1335): the binding result is on record as “binds”.

For the molecule B1, the binding result was “no binding”.

In the case of B2, the binding result is reported as “binds”.
